Some of the results follow.
Tests used:
Experiment in all cases: log2 fold change, soluble protein after heating vs DMSO (PISA); higher = thermal stabilisation; K562 lysate, 10 uM; active = over 0.2 and 3.5 SD of the protein, either way, in both replicates (recomputed)
[1] = compound: CN1CC[C@H](c2c(O)cc(O)c3c(=O)cc(-c4ccccc4Cl)oc23)[C@H](O)C1 [alvocidib]
Method in brief: (§1)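 Following dounce homogenisation of K562 pellets in PBS pH 7.4 with 1 mM MgCl2, crude extract at 1 mg/mL protein was incubated for 30 min with 10 μM compound. Aliquots were then heated for 3 min over 48°C-58°C and pooled, NP-40 was added to 0.5% at 4°C, and soluble protein was recovered as the supernatant at 21,000xg for 90 min. Channel-sum-equalised TMTpro 16plex LC-MS/MS quantified this protein. Each value, from duplicates, is a log-two fold change in thermal stability relative to solvent controls.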

The chains behind the UniProt entries cited, without tags or fusion partners. Where a name states a change or a piece, a line headed by the entry shows the natural chain unless it says otherwise.
UniProt P01876, whole entry, looked up: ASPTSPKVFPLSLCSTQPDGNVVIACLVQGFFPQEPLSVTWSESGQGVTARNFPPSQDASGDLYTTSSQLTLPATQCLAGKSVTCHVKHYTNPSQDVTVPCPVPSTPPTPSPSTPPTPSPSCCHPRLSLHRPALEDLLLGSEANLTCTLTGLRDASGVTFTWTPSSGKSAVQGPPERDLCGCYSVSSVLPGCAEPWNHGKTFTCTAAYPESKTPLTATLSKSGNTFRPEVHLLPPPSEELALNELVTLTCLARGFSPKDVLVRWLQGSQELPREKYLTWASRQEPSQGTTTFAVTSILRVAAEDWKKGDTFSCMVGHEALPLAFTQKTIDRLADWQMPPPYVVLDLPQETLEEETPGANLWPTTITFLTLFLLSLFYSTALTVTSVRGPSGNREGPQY
UniProt Q96T52: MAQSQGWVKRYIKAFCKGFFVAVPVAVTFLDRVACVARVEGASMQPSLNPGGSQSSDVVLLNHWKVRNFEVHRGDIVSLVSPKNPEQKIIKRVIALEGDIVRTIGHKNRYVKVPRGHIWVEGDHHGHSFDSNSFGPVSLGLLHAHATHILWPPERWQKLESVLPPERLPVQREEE
UniProt P42858, whole entry, looked up: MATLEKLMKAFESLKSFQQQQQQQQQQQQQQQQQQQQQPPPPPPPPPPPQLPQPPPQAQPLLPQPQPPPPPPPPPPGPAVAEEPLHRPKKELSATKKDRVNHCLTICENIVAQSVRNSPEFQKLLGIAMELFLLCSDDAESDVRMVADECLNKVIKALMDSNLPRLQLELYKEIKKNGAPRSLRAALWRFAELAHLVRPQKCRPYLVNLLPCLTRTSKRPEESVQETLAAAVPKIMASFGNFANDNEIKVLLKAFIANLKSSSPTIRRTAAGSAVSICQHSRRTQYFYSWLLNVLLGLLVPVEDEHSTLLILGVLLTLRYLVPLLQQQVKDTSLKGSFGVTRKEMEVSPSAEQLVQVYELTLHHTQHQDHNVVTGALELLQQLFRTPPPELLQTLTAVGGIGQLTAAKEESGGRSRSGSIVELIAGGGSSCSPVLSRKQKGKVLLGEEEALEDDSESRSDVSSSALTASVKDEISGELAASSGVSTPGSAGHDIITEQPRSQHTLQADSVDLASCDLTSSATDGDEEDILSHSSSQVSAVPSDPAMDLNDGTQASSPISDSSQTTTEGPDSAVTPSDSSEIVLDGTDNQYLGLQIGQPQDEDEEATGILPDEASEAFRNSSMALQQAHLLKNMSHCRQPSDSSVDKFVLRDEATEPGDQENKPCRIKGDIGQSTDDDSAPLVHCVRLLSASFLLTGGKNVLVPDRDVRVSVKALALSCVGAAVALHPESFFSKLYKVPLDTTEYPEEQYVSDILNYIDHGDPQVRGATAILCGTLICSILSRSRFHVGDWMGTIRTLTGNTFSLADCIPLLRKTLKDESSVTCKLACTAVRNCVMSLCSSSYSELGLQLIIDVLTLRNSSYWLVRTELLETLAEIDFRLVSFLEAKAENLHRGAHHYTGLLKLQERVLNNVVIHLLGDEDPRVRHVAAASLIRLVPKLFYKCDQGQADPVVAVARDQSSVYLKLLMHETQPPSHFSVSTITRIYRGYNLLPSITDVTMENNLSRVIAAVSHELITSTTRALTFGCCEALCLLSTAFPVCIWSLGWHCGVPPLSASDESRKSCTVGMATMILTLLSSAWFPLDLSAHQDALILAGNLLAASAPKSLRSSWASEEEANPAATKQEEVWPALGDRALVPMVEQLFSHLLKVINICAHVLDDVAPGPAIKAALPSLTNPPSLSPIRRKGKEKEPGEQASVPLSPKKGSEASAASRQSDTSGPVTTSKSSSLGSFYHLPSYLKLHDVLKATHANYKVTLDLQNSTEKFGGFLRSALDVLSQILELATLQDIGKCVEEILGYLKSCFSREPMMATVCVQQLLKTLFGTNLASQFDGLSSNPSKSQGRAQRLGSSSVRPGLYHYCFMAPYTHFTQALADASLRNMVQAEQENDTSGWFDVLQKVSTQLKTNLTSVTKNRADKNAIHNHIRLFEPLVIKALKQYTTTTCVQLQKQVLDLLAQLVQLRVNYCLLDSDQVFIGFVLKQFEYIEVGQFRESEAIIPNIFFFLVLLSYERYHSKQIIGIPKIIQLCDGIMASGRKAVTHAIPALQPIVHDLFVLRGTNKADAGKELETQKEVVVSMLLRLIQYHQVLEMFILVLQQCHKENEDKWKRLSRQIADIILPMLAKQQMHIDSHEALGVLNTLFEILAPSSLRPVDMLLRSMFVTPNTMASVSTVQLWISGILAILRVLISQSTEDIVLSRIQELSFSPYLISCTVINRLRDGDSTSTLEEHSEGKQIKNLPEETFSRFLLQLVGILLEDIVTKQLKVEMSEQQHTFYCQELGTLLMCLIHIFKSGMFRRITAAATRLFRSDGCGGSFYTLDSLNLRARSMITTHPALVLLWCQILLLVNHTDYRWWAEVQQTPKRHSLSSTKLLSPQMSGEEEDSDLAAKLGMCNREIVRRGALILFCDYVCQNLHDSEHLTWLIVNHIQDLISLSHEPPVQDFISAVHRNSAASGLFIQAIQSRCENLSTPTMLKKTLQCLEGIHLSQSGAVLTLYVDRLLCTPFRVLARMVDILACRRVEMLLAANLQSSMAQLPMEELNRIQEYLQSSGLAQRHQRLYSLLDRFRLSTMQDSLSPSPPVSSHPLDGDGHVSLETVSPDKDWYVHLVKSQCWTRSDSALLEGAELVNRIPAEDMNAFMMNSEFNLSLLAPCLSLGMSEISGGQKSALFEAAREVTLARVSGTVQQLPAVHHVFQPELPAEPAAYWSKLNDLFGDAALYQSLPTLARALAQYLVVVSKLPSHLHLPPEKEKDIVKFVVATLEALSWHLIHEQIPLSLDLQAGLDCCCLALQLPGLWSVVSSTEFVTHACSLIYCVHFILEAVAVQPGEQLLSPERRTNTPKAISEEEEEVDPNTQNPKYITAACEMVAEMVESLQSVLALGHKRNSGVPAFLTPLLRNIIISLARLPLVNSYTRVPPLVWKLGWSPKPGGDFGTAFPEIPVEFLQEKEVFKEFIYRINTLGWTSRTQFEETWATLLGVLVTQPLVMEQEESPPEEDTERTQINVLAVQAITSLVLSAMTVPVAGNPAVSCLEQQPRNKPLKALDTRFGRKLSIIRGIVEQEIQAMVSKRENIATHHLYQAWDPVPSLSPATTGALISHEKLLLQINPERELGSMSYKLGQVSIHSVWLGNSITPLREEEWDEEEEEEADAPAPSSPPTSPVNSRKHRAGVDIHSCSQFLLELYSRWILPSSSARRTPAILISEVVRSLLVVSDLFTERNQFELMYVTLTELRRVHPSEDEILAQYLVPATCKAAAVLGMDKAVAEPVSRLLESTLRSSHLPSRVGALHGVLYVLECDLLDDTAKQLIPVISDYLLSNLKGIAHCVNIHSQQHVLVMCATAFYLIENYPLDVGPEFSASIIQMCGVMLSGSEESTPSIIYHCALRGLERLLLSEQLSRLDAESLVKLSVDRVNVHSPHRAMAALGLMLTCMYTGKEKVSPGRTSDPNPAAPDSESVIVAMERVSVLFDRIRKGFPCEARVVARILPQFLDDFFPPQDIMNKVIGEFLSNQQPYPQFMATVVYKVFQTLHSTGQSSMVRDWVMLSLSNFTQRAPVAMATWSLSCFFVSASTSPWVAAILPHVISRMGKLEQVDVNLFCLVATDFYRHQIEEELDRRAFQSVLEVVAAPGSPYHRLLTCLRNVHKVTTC
UniProt Q05084: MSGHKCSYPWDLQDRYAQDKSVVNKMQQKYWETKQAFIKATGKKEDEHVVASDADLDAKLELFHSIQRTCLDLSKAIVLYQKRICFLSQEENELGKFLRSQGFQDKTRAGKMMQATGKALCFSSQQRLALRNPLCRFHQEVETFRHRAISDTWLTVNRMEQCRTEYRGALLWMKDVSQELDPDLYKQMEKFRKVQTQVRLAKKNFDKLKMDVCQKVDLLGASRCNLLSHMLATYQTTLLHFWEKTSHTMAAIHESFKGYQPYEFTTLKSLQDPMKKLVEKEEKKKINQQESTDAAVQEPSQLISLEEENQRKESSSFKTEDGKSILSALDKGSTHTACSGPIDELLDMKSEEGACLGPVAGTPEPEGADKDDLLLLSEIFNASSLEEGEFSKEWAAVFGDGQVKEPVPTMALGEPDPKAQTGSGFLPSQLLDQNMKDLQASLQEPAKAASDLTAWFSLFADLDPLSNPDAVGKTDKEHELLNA
UniProt Q96EW2: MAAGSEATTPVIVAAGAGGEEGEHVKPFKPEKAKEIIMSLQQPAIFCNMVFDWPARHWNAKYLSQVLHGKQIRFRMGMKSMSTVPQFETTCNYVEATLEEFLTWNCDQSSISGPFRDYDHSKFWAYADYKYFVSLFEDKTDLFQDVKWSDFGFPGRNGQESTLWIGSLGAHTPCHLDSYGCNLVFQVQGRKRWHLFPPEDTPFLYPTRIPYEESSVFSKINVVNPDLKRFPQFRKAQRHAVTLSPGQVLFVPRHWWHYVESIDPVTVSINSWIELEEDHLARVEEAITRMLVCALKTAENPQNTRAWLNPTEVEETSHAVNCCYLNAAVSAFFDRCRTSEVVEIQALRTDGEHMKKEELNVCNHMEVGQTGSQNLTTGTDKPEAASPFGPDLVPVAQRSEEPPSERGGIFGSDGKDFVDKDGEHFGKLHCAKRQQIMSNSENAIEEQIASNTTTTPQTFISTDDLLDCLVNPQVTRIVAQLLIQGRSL
UniProt Q96LB3: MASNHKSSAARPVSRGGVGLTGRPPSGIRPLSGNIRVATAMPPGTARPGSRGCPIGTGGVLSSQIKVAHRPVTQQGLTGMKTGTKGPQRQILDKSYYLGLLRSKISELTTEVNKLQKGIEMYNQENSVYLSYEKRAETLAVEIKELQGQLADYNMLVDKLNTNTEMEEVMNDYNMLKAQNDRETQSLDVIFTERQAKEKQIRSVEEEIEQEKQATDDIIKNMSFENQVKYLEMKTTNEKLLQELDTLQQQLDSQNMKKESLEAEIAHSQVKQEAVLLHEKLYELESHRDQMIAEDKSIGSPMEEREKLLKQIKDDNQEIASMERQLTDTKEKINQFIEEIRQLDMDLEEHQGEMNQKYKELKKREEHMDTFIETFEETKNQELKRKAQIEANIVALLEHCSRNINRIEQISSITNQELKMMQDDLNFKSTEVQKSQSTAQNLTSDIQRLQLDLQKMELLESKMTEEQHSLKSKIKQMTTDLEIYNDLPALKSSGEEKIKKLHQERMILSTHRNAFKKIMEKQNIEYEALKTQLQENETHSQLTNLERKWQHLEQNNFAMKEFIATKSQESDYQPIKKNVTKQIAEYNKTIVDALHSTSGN
UniProt Q8IY31, whole entry, looked up: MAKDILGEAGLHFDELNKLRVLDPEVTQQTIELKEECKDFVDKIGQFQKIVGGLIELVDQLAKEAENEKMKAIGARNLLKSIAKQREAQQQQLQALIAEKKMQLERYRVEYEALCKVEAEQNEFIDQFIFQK
UniProt O43464: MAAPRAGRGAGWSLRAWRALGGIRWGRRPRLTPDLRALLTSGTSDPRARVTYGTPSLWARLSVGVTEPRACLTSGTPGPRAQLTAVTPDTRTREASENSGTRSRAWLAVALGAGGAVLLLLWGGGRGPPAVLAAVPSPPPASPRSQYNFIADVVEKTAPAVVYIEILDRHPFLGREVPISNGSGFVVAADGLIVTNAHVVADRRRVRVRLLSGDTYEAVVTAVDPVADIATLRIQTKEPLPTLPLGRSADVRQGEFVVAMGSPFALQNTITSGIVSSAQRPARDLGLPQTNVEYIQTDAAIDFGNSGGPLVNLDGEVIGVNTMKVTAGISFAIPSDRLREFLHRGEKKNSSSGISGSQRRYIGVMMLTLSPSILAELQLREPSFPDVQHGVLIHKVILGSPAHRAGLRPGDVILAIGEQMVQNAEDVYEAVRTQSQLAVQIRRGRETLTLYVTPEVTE
UniProt Q96LU5: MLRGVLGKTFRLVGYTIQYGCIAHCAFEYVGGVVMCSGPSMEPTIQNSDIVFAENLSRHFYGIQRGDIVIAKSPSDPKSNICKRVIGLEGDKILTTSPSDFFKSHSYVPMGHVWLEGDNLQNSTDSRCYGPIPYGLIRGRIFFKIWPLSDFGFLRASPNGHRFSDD
UniProt P05362: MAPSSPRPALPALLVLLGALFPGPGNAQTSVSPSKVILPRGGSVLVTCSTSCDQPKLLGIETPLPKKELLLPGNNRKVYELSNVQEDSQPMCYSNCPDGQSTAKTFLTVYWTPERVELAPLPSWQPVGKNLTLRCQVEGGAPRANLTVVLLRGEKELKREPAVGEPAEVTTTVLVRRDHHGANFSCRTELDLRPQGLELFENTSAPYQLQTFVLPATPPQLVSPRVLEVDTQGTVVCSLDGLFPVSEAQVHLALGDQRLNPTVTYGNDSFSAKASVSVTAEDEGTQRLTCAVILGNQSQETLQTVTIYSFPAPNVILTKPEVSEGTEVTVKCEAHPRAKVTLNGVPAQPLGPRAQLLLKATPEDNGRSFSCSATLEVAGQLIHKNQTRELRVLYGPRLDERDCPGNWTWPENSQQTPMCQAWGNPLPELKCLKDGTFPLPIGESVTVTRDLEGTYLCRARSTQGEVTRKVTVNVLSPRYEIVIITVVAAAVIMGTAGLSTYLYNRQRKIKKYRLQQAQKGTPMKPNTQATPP

[2] = compound: CN1CCc2c(c3ccccc3n2Cc2ccc(C(=O)NO)cc2)C1 [Tubastatin A]
Method in brief: as §1

[3] = compound: CNC(=O)C1=CC=CC=C1NC2=NC(=NC=C2Cl)NC3=C(C=C(C=C3)N4CCOCC4)OC
Method in brief: as §1

[4] = compound: CNC(=O)c1ccc(Nc2ncc(C(F)(F)F)c(NCc3nccnc3N(C)S(C)(=O)=O)n2)cc1 [defactinib]
Method in brief: as §1

[5] = compound: CNc1nc(-c2ccc3c(N)n[nH]c3c2)cc(N2C[C@@H](C(=O)NC3CCCCC3)CC[C@H]2C)n1
Method in brief: as §1

[6] = compound: COC(=O)N[C@@H](C)CNc1nccc(-c2cn(C(C)C)nc2-c2cc(Cl)cc(NS(C)(=O)=O)c2F)n1 [encorafenib]
Method in brief: as §1

[7] = compound: COC(=O)[C@H](CCSC)NC(=O)C1=C(C=C(C=C1)NC[C@H](CS)N)C2=CC=CC=C2
Method in brief: as §1

[8] = compound: COc1cc(Nc2ncc3c(n2)-c2ccc(Cl)cc2C(c2c(F)cccc2OC)=NC3)ccc1C(=O)O [alisertib]
Method in brief: as §1

[9] = compound: COc1cc2ncnc(Nc3ccc(F)c(Cl)c3)c2cc1OCCCN1CCOCC1 [gefitinib]
Method in brief: as §1

[10] = compound: CS(=O)(=O)N1CCN(Cc2cc3nc(-c4cccc5[nH]ncc45)nc(N4CCOCC4)c3s2)CC1 [pictilisib]
Method in brief: as §1

[11] = compound: C[C@@H](Oc1cc(-c2cnn(C3CCNCC3)c2)cnc1N)c1c(Cl)ccc(F)c1Cl [crizotinib]
Method in brief: as §1

[12] = compound: C[C@H](C1=CC=C(C=C1)C(=O)NC2=C3C=CNC3=NC=C2)N
Method in brief: as §1

[13] = compound: C[C@H](Nc1ncnc2nc[nH]c12)c1cc2cccc(Cl)c2c(=O)n1-c1ccccc1 [duvelisib]
Method in brief: as §1

[14] = compound: Cc1cc(Nc2cc(CN3CCOCC3)c3nc(C)c(Cc4ccc(Cl)cc4F)n3n2)n[nH]1 [gandotinib]
Method in brief: as §1

[15] = compound: Cc1cc(Nc2cc(N3CCN(C)CC3)nc(Sc3ccc(NC(=O)C4CC4)cc3)n2)n[nH]1 [tozasertib]
Method in brief: as §1

[16] = compound: Cc1ccc(-n2nc(C(C)(C)C)cc2NC(=O)Nc2ccc(OCCN3CCOCC3)c3ccccc23)cc1 [doramapimod]
Method in brief: as §1

[17] = compound: Cc1ccc(NC(=O)c2ccc(CN3CC[C@H](N(C)C)C3)c(C(F)(F)F)c2)cc1Nc1nccc(-c2cncnc2)n1 [bafetinib]
Method in brief: as §1

[18] = compound: Cc1cccc(CC(=O)N2CCc3c2ccc(-c2cn(C)c4ncnc(N)c24)c3F)n1
Method in brief: as §1

[19] = compound: COc1cc2nc(-c3cc(F)ccc3O)nc(N[C@@H]3CNC[C@H]3C(C)(C)O)c2cc1OC
Method in brief: as §1

[20] = compound: CS(=O)(=O)CCNCc1ccc(-c2ccc3ncnc(Nc4ccc(OCc5cccc(F)c5)c(Cl)c4)c3c2)o1 [lapatinib]
Method in brief: as §1

Measured: log2 fold change

IGHA1 (UniProt P01876)
inactive: [1] -0.027 | [2] 1.41 | [3] 0.285 | [4] 0.562 | [5] -0.38 | [6] -0.28 | [7] 0.49 | [8] -0.018 | [9] -0.015 | [10] 0.132 | [11] 1.12 | [12] 0.252 | [13] 0.333 | [14] -0.185 | [15] 1.3 | [16] -0.088 | [17] 0.276 | [18] 0.434

HUWE1 (UniProt Q7Z6Z7)
inactive: [1] -0.006 | [2] -0.022 | [3] 0.026 | [4] -0.009 | [5] 0.012 | [6] 0.006 | [7] -0.001 | [8] 0.007 | [19] 0.002 | [9] -0.005 | [20] -0.015 | [10] -0.025 | [11] -0.001 | [12] -0.013 | [13] 0.009 | [14] 0.005 | [15] -0.006 | [16] 0.004 | [17] -0.028 | [18] 0.005

INPP5A (UniProt Q14642)
inactive: [1] -0.029 | [2] -0.067 | [3] -0.05 | [4] -0.079 | [5] -0.14 | [6] 0.032 | [7] 0.135 | [10] -0.089 | [12] -0.289 | [13] -0.041 | [14] 0.025 | [15] -0.197 | [17] -0.131 | [18] 0.115

IMMP2L (UniProt Q96T52)
inactive: [1] -0.045 | [2] 0.077 | [3] -0.107 | [4] -0.007 | [5] 0.068 | [6] 0.029 | [7] 0.155 | [8] 0.039 | [19] -0.003 | [9] 0.053 | [20] 0.017 | [10] -0.098 | [11] -0.01 | [12] -0.052 | [13] -0.036 | [14] 0.003 | [15] -0.052 | [16] -0.027 | [17] -0.041 | [18] 0.081

HTT (UniProt P42858)
inactive: [1] 0 | [2] -0.195 | [3] 0.022 | [4] 0.048 | [5] -0.043 | [6] 0.008 | [7] -0.003 | [8] -0.005 | [9] -0.032 | [10] -0.028 | [11] -0.042 | [12] -0.012 | [13] -0.016 | [14] -0.124 | [15] 0.002 | [16] 0.006 | [17] -0.112 | [18] 0.094

INPP5F (UniProt Q9Y2H2)
inactive: [1] -0.073 | [2] 0.25 | [3] 0.059 | [4] -0.085 | [5] 0.96 | [6] -0.146 | [7] 0.133 | [8] -0.117 | [19] 0.173 | [9] 0.015 | [20] -0.231 | [10] -0.076 | [12] -0.39 | [13] 0.08 | [14] 0.261 | [15] -0.207 | [17] -0.421 | [18] 0.263

IGFBP4 (UniProt P22692)
active: [19] 0.454
inactive: [1] -0.149 | [2] -0.083 | [3] 0.045 | [5] -0.084 | [8] -0.005 | [9] 0.005 | [20] -0.007 | [10] 0.015 | [11] -0.042 | [12] 0 | [13] -0.029 | [14] 0.019 | [16] 0.014 | [17] -0.149 | [18] 0.095

ICA1 (UniProt Q05084)
inactive: [1] -0.015 | [2] -0.082 | [3] 0.03 | [4] -0.059 | [5] -0.061 | [6] 0.042 | [7] 0.055 | [8] -0.028 | [19] 0.001 | [9] 0.015 | [20] -0.044 | [10] 0.006 | [11] -0.068 | [12] 0 | [13] 0.011 | [14] 0.016 | [15] 0.006 | [16] 0.015 | [17] 0 | [18] -0.007

HSPBAP1 (UniProt Q96EW2)
active: [5] -0.547
inactive: [1] -0.094 | [2] -0.139 | [3] 0.02 | [6] 0.097 | [7] -0.154 | [8] -0.113 | [19] -0.104 | [9] -0.005 | [20] -0.074 | [10] -0.014 | [11] -0.111 | [12] -0.076 | [13] 0.022 | [14] 0.15 | [15] -0.025 | [16] 0.125 | [17] 0.052 | [18] -0.141

IFT74 (UniProt Q96LB3)
inactive: [1] -0.047 | [2] 0.063 | [3] -0.024 | [4] -0.017 | [5] 0.208 | [6] 0.035 | [7] 0.03 | [8] 0.03 | [19] 0.13 | [9] -0.071 | [20] -0.018 | [10] 0.011 | [11] -0.071 | [12] -0.171 | [13] 0.05 | [14] 0.221 | [15] 0.014 | [16] -0.001 | [17] -0.028 | [18] 0.177

IFT20 isoform 2 (UniProt Q8IY31)
inactive: [1] -0.047 | [2] 0.035 | [3] 0.094 | [4] 0.123 | [5] 0.007 | [6] 0.081 | [7] -0.239 | [8] 0.019 | [19] 0.005 | [9] -0.219 | [20] -0.013 | [10] 0.116 | [11] 0.04 | [12] 0.032 | [13] -0.016 | [14] -0.1 | [15] -0.01 | [16] -0.029 | [17] 0.022 | [18] 0.003

2 records picked at random from those above, as already listed:
IFT20 isoform 2 (UniProt Q8IY31)
inactive: [1] -0.047 | [2] 0.035 | [3] 0.094 | [4] 0.123 | [5] 0.007 | [6] 0.081 | [7] -0.239 | [8] 0.019 | [19] 0.005 | [9] -0.219 | [20] -0.013 | [10] 0.116 | [11] 0.04 | [12] 0.032 | [13] -0.016 | [14] -0.1 | [15] -0.01 | [16] -0.029 | [17] 0.022 | [18] 0.003

INPP5F (UniProt Q9Y2H2)
inactive: [1] -0.073 | [2] 0.25 | [3] 0.059 | [4] -0.085 | [5] 0.96 | [6] -0.146 | [7] 0.133 | [8] -0.117 | [19] 0.173 | [9] 0.015 | [20] -0.231 | [10] -0.076 | [12] -0.39 | [13] 0.08 | [14] 0.261 | [15] -0.207 | [17] -0.421 | [18] 0.263

(listing goes on)

IMP3 (UniProt Q9NV31)
inactive: [1] -0.157 | [2] 0.013 | [3] 0.018 | [4] -0.049 | [5] -0.053 | [6] 0.004 | [7] -0.023 | [8] -0.047 | [19] 0.001 | [9] -0.003 | [20] 0.425 | [10] -0.014 | [11] -0.176 | [12] -0.134 | [13] -0.304 | [14] 0.038 | [15] -0.077 | [16] 0.071 | [17] -0.181 | [18] 0.306

HTRA2 (UniProt O43464)
inactive: [1] -0.034 | [2] 0.049 | [3] 0 | [4] 0.018 | [5] 0.055 | [6] -0.019 | [7] -0.045 | [8] 0.002 | [19] 0.033 | [9] -0.003 | [20] -0.028 | [10] -0.021 | [11] -0.023 | [12] -0.064 | [13] -0.012 | [14] 0.058 | [15] 0.019 | [16] 0.008 | [17] -0.026 | [18] 0.047

IMMP1L (UniProt Q96LU5)
inactive: [1] 0.014 | [2] 0.024 | [3] 0.03 | [5] 0.138 | [6] -0.017 | [7] -0.152 | [8] -0.029 | [19] -0.02 | [9] -0.027 | [20] -0.034 | [10] -0.028 | [11] -0.041 | [12] 0.059 | [13] -0.041 | [14] -0.081 | [15] 0.229 | [16] 0.019 | [17] -0.055 | [18] -0.072

ICAM1 (UniProt P05362)
inactive: [1] -0.044 | [2] 0.034 | [3] -0.003 | [4] -0.019 | [5] 0.06 | [6] -0.014 | [7] -0.015 | [8] 0.032 | [19] -0.007 | [9] 0.002 | [20] -0.02 | [10] -0.003 | [11] 0.044 | [12] -0.075 | [13] 0.015 | [14] 0.045 | [15] -0.019 | [16] -0.075 | [17] -0.049 | [18] 0.016

IGLL5 (UniProt B9A064)
inactive: [1] 0 | [2] 1.23 | [3] 0.153 | [4] -0.043 | [6] -0.099 | [7] -0.005 | [19] 0.053 | [20] -0.058 | [11] 0.262 | [12] 0.123 | [14] -0.051 | [15] 0.88 | [16] 0.101 | [18] 0.483

IGHG1 (UniProt P01857)
inactive: [1] -0.079 | [2] 0.542 | [3] 0.221 | [4] 0.05 | [5] -0.132 | [8] -0.065 | [9] 0.354 | [10] 0.622 | [11] 0.376 | [12] 0.454 | [13] -0.022 | [14] 0.43 | [16] 0.413 | [17] -0.305 | [18] 0.199

HSPA8 (UniProt E9PK54)
inactive: [1] -0.047 | [2] 0.036 | [3] -0.066 | [4] -0.041 | [5] -0.05 | [6] -0.025 | [7] -0.004 | [8] -0.016 | [19] 0.016 | [9] -0.051 | [20] -0.067 | [10] -0.013 | [11] 0.051 | [12] -0.025 | [13] 0.004 | [14] 0.058 | [15] 0.067 | [16] 0.011 | [17] 0.026 | [18] 0.046
